Data from article PMC9614494.
These are yes or no findings as the source states them, for the method shown. Binding seen in cells or lysates may run through a third protein. Some results given as binding are weak or reduced against the parent protein; the word gives no strength.

Amino acid sequences for entries named in this document (tags omitted). Residues count along the entry.
UniProt Q42522, residues 37-472: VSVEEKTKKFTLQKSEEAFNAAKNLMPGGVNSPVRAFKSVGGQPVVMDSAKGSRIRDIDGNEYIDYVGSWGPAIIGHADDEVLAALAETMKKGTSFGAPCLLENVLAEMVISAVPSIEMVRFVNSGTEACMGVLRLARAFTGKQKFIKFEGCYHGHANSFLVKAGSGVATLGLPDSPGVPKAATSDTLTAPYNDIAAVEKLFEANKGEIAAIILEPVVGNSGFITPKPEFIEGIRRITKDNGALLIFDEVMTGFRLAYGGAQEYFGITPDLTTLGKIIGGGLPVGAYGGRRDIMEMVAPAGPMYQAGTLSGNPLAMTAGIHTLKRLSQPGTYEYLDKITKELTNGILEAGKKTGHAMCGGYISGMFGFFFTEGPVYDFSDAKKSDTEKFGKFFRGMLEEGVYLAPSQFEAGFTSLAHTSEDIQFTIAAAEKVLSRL

Biological target: GSAAT2 (glutamate-1-semialdehyde aminotransferase 2) fused to a half of YFP-Venus (Arabidopsis thaliana) (UniProt Q42522)
Test: split reporter; BiFC with halves of YFP-Venus, transient co-expression in N. benthamiana leaves for 48-72 h in the dark, confocal microscopy; GSAAT-YFPc with GBP-YFPn, HEMA1-YFPn or GSAAT-YFPn

**Q.** Which binding does the source give for “GSAAT2 (glutamate-1-semialdehyde aminotransferase 2) fused to a half of YFP-Venus (from UniProt Q42522 37-472) (enzyme)” here?
**A.** The binding was “binds”.
